Results from the supplement of paper PMC6411743.
± gives the standard deviation of the averaged measurements. Only a part is listed here, and it is no random draw. Most entries show no effect beyond the scatter of the controls.

Protein sequences, listed by entry. Tags and fused reporters are not part of them. Lines headed by an entry give the natural chain unless they say otherwise; changes in a name come on top.
UniProt Q96MF7: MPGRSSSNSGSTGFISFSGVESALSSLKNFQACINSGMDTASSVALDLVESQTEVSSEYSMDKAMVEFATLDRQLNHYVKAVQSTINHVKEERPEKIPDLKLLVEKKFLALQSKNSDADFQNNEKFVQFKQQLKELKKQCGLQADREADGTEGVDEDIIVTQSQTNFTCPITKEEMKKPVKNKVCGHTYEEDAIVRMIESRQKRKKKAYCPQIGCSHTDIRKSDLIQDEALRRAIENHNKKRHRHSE
UniProt Q86UW9: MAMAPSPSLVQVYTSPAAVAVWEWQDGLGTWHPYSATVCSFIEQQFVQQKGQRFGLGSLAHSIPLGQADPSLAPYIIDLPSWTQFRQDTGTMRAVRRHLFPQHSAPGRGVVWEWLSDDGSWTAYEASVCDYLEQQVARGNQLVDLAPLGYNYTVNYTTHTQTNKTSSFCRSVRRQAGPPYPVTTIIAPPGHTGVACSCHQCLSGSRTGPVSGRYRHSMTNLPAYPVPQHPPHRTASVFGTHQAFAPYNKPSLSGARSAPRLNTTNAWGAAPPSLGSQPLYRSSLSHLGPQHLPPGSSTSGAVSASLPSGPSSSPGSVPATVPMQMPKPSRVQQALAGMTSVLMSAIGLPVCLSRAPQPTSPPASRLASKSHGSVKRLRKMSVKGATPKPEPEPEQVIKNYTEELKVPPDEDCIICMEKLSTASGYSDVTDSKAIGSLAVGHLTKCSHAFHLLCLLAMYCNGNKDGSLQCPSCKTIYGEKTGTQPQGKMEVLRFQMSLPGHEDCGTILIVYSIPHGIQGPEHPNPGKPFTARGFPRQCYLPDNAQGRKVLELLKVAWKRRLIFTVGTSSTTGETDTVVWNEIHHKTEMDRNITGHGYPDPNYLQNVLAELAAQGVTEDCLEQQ
UniProt Q8WYH8, whole entry: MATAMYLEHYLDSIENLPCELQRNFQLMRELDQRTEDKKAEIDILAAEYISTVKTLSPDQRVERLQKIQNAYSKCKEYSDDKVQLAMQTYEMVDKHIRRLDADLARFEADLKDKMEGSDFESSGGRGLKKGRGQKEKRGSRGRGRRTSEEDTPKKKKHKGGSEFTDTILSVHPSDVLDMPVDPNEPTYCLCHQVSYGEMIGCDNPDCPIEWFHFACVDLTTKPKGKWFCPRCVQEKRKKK
UniProt Q567U6, whole entry: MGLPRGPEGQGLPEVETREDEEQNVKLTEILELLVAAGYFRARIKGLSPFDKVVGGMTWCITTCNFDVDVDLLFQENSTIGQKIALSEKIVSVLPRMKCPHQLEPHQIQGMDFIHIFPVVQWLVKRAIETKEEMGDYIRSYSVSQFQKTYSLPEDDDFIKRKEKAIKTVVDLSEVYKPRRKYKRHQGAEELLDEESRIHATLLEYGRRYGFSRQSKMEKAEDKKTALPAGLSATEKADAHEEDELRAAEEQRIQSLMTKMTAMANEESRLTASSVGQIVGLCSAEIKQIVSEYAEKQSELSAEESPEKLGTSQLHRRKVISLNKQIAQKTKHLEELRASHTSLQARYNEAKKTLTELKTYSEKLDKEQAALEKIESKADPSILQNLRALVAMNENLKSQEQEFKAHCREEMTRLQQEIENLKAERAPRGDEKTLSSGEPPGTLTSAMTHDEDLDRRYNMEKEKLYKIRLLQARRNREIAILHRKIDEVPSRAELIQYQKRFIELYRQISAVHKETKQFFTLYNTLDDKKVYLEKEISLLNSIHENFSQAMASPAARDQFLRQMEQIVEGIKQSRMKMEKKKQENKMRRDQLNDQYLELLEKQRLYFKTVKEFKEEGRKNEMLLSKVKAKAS
UniProt P32322: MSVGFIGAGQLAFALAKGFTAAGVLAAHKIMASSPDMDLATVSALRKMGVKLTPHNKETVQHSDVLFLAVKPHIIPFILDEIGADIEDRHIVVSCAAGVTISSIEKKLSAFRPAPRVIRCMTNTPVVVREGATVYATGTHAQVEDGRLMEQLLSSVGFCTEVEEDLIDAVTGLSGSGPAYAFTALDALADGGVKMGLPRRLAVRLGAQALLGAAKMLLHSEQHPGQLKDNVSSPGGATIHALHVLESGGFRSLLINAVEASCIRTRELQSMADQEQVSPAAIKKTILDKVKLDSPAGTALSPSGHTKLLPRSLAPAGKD
UniProt Q76I76: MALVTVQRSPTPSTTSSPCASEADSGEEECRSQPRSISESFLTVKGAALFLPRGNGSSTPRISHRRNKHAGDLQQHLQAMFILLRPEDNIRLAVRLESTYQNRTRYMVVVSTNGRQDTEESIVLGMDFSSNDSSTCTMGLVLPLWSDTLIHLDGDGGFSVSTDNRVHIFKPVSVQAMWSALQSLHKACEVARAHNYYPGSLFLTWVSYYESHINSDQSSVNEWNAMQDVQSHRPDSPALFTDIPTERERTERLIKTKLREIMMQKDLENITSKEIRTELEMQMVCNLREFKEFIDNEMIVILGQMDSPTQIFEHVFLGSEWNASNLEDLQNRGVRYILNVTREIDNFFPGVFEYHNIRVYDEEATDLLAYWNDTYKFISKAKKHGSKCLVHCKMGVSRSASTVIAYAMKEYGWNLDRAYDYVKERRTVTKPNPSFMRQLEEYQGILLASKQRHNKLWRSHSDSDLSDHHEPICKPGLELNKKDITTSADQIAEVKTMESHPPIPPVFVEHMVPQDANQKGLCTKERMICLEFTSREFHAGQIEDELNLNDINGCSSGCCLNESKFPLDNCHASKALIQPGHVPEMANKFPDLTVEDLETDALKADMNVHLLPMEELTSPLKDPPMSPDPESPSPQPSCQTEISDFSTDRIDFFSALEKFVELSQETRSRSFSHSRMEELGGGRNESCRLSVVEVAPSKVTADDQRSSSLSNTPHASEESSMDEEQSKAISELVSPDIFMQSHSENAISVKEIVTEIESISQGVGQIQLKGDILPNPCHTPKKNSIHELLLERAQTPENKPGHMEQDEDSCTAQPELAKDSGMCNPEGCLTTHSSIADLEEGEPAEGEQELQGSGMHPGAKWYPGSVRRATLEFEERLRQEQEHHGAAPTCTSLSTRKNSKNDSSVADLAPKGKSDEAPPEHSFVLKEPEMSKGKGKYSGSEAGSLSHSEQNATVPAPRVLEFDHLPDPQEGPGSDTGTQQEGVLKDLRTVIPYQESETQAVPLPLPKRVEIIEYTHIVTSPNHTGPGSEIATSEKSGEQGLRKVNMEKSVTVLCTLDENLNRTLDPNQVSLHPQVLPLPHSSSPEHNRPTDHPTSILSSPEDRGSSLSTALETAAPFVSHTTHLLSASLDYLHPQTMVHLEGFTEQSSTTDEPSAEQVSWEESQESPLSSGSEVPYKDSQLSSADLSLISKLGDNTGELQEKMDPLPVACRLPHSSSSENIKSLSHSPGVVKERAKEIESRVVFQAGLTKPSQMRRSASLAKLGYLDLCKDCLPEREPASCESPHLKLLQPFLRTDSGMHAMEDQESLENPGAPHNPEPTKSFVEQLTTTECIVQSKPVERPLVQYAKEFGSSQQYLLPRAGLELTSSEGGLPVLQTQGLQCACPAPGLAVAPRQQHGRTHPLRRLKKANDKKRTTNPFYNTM
UniProt O95208: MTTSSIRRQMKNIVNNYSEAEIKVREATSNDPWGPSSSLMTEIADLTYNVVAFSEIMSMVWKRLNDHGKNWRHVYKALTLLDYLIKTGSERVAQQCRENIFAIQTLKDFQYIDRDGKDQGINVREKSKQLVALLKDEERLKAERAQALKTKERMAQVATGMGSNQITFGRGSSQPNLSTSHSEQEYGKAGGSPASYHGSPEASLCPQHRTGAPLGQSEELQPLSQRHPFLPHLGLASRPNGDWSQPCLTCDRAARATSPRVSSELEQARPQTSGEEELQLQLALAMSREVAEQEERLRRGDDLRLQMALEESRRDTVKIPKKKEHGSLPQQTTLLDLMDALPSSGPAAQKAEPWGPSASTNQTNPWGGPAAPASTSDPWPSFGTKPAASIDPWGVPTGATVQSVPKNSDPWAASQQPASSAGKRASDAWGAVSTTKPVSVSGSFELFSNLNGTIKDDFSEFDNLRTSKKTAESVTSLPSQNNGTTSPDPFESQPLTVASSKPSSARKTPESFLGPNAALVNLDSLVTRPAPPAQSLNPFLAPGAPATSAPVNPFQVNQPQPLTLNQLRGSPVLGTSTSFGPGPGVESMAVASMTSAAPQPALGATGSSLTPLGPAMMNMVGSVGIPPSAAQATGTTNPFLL
UniProt O43795: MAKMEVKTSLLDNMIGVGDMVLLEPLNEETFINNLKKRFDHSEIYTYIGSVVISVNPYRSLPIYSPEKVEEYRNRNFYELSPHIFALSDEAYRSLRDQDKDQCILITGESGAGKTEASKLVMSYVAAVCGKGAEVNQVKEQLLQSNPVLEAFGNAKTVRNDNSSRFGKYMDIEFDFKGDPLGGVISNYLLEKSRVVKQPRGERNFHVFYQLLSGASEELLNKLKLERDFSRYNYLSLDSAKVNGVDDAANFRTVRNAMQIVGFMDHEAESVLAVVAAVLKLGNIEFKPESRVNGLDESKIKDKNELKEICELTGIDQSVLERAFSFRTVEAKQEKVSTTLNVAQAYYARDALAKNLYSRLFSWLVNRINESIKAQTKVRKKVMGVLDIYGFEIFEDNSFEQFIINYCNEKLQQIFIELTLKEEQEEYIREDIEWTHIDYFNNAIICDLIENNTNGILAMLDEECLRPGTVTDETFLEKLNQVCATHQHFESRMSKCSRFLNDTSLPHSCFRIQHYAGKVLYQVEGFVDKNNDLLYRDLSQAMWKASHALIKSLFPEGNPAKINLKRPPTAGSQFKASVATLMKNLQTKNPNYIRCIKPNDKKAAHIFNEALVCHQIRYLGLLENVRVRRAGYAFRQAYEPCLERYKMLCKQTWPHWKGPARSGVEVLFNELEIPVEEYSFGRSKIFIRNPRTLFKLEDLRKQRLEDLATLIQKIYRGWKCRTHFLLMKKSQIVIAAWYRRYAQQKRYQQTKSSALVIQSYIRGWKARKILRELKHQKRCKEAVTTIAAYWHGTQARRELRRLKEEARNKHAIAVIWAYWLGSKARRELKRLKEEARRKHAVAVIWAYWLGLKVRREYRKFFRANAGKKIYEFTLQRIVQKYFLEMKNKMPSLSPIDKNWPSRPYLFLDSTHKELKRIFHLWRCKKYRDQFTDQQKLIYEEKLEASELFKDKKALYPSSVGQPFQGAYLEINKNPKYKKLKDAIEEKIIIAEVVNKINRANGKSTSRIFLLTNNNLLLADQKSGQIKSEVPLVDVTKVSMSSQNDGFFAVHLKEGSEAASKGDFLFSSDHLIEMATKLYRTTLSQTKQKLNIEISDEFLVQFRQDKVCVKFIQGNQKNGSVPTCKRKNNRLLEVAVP
UniProt O43913: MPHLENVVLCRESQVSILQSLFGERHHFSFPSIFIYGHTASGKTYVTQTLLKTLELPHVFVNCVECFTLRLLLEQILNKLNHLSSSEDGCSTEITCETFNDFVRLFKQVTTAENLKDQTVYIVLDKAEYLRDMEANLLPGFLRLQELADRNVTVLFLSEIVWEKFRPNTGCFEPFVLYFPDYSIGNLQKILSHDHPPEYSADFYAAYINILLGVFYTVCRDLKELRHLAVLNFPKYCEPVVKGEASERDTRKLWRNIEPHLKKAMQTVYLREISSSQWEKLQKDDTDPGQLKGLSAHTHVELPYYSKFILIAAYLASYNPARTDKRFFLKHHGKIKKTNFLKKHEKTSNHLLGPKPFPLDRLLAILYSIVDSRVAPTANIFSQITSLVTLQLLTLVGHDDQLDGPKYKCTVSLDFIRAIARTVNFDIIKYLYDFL
UniProt O95267: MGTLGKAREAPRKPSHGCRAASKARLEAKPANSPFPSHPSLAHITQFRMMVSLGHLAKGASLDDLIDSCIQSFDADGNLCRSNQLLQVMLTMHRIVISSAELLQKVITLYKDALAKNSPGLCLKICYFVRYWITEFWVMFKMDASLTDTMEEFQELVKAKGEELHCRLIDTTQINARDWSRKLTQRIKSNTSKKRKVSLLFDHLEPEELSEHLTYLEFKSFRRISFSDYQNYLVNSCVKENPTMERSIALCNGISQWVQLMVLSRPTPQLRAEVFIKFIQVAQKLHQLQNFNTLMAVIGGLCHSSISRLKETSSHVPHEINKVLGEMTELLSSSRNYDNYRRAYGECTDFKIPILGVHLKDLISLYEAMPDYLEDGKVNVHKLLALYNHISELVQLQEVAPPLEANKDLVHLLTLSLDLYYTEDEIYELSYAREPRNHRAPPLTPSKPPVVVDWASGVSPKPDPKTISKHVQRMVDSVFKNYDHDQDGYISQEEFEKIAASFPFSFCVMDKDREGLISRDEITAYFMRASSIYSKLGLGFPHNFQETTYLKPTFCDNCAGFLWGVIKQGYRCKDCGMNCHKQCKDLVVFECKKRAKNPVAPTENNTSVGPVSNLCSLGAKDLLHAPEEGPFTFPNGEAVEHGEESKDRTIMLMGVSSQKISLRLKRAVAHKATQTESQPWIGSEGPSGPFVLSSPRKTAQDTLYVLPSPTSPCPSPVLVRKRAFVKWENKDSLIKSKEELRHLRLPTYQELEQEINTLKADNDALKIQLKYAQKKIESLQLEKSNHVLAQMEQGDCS

Compound: Nc1ncnc2c1ncn2[C@@H]1O[C@H](COP(=O)(O)OP(=O)(O)OP(=O)(O)O)[C@@H](O)[C@H]1O [adenosine triphosphate]
Assay: NP40-soluble protein abundance relative to vehicle (solubility fold change) (ratio); higher = more soluble protein in presence of ATP
How it was run: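 Jurkat crude lysate prepared with a Dounce homogeniser was treated at eight concentrations spanning 0.1 to 10 mM, 10 min at room temperature then 3 min at 37 °C. Solubilisation with 0.8% NP40 and benzonase and ultracentrifugation preceded TMT labelling of the supernatant for LC-MS/MS. Fold change against the detergent-processed vehicle was determined per replicate from vsn-normalised intensities, across three independent experiments.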

Row | Target | NP40-soluble protein abundance (concentration: 0.1mM) | NP40-soluble protein abundance (concentration: 0.5mM) | NP40-soluble protein abundance (concentration: 1mM) | NP40-soluble protein abundance (concentration: 2mM) | NP40-soluble protein abundance (concentration: 4mM) | NP40-soluble protein abundance (concentration: 6mM) | NP40-soluble protein abundance (concentration: 8mM) | NP40-soluble protein abundance (concentration: 10mM)
1 | E5RFJ1 and related entries (UniProt Q96MF7) | 1.02 ± 0.039 | 1.02 ± 0.036 | 1.04 ± 0.053 | 1.04 ± 0.012 | 1.03 ± 0.017 | 1.09 ± 0.036 | 1.01 ± 0.018 | 1 ± 0.034
2 | F8W060 and related entries (UniProt Q9BZF1) | 1.01 ± 0.031 | 0.998 ± 0.045 | 0.936 ± 0.018 | 0.933 ± 0.035 | 0.939 ± 0.018 | 0.927 ± 0.046 | 0.964 ± 0.013 | 0.959 ± 0.045
3 | E7ET89 and related entries (UniProt Q86UW9) | 0.969 ± 0.1 | 1.011 ± 0.0029 | 0.936 ± 0.2 | 1.09 ± 0.15 | 1.05 ± 0.11 | 1.04 ± 0.039 | 1.03 ± 0.086 | 1.04 ± 0.035
4 | E9PEB9 and related entries (UniProt Q03001) | 0.998 ± 0.088 | 0.911 ± 0.048 | 0.92 ± 0.1 | 0.924 ± 0.041 | 0.942 ± 0.081 | 0.959 ± 0.15 | 0.899 ± 0.09 | 0.968 ± 0.056
5 | E9PJN1 and related entries (UniProt O75676) | 1.31 ± 0.29 | 1.38 ± 0.15 | 1.36 ± 0.22 | 2.6 ± 1.5 | 1.34 ± 0.17 | 1.35 ± 0.17 | 1.31 ± 0.26 | 1.38 ± 0.13
6 | E9PF16 and related entries (UniProt Q96CM8) | 1.03 ± 0.033 | 1.03 ± 0.051 |  |  |  |  |  | 
7 | E9PRY8 and related entries (UniProt P29692) | 0.949 ± 0.053 | 0.915 ± 0.05 | 0.959 ± 0.054 | 0.931 ± 0.034 | 0.894 ± 0.03 | 0.912 ± 0.091 | 0.88 ± 0.042 | 0.865 ± 0.015
8 | E9PEN0 and related entries (UniProt Q8WYH8) | 0.906 ± 0.13 | 1.16 ± 0.2 | 1.15 ± 0.2 | 1.3 ± 0.29 | 1.36 ± 0.18 | 1.5 ± 0.16 | 1.85 ± 0.6 | 1.86 ± 0.39
9 | F8W9X7 and related entries (UniProt Q567U6) | 0.992 ± 0.013 | 0.996 ± 0.032 | 0.974 ± 0.012 | 0.962 ± 0.017 | 0.959 ± 0.024 | 0.935 ± 0.015 | 0.951 ± 0.016 | 0.943 ± 0.028
10 | F5GWN5 and related entries (UniProt O00750) | 1.02 ± 0.035 | 1.01 ± 0.057 | 0.994 ± 0.022 | 1.03 ± 0.025 | 1.05 ± 0.013 | 1.02 ± 0.039 | 1.03 ± 0.028 | 1.03 ± 0.051
11 | E9PB61 and related entries (UniProt Q86V81) | 0.936 ± 0.065 | 0.945 ± 0.099 | 1.04 ± 0.094 | 1.09 ± 0.07 | 1.22 ± 0.13 | 1.44 ± 0.15 | 1.53 ± 0.13 | 1.66 ± 0.24
12 | G3V0I5 and related entries (UniProt P49821) | 1.01 ± 0.059 | 0.988 ± 0.055 | 0.986 ± 0.025 | 0.96 ± 0.02 | 0.944 ± 0.033 | 0.94 ± 0.056 | 0.962 ± 0.052 | 0.953 ± 0.046
13 | F6S7C4 and related entries (UniProt Q8NEM7) | 1.01 ± 0.026 | 1.07 ± 0.078 | 1.09 ± 0.12 | 1.15 ± 0.1 | 1.14 ± 0.093 | 1.12 ± 0.13 | 1.16 ± 0.093 | 1.2 ± 0.11
14 | E2QRB3 and related entries (UniProt P32322) | 0.989 ± 0.015 | 1.01 ± 0.035 |  |  |  |  |  | 
15 | F5H527 and related entries (UniProt Q76I76) | 1.02 ± 0.04 | 0.997 ± 0.076 | 0.984 ± 0.012 | 1 ± 0.016 | 0.993 ± 0.03 | 0.997 ± 0.013 | 0.978 ± 0.037 | 0.995 ± 0.062
16 | E9PBC1 and related entries (UniProt O95208) | 0.961 ± 0.057 | 0.909 ± 0.043 |  |  |  |  |  | 
17 | E9PDF6 and related entries (UniProt O43795) | 1.13 ± 0.043 | 2.71 ± 0.17 | 2.78 ± 0.047 | 2.71 ± 0.065 | 2.65 ± 0.15 | 2.65 ± 0.21 | 2.82 ± 0.17 | 2.67 ± 0.12
18 | E9PL53 and related entries (UniProt Q96ER3) | 0.98 ± 0.036 | 0.964 ± 0.023 | 0.966 ± 0.034 | 0.9715 ± 0.0057 | 0.951 ± 0.013 | 0.997 ± 0.019 | 0.9485 ± 0.0047 | 0.925 ± 0.011
19 | E7EUT5 and related entries (UniProt P04406) | 1.07 ± 0.018 | 0.994 ± 0.065 | 1.01 ± 0.012 | 0.959 ± 0.074 | 0.9969 ± 0.0069 | 0.939 ± 0.043 | 0.954 ± 0.024 | 0.944 ± 0.059
20 | G3V0H0 and related entries (UniProt O43913) | 1.05 ± 0.11 | 1.06 ± 0.099 | 1.03 ± 0.12 | 1.01 ± 0.097 | 1.02 ± 0.08 | 1 ± 0.13 | 1.08 ± 0.078 | 1.02 ± 0.061
21 | F5H514 and related entries (UniProt O95267) | 0.914 ± 0.04 | 1.07 ± 0.11 | 1.04 ± 0.12 | 1.09 ± 0.046 | 1.19 ± 0.15 | 1.21 ± 0.13 | 1.14 ± 0.065 | 1.24 ± 0.15
22 | E7EPT4 and related entries (UniProt P19404) | 0.897 ± 0.14 | 0.869 ± 0.13 |  |  |  |  |  | 

Reformatted: results already given.
Row	Target	NP40-soluble protein abundance (concentration: 0.1mM)	NP40-soluble protein abundance (concentration: 0.5mM)	NP40-soluble protein abundance (concentration: 1mM)	NP40-soluble protein abundance (concentration: 2mM)	NP40-soluble protein abundance (concentration: 4mM)	NP40-soluble protein abundance (concentration: 6mM)	NP40-soluble protein abundance (concentration: 8mM)	NP40-soluble protein abundance (concentration: 10mM)
9	F8W9X7 and related entries (UniProt Q567U6)	0.992 ± 0.013	0.996 ± 0.032	0.974 ± 0.012	0.962 ± 0.017	0.959 ± 0.024	0.935 ± 0.015	0.951 ± 0.016	0.943 ± 0.028
10	F5GWN5 and related entries (UniProt O00750)	1.02 ± 0.035	1.01 ± 0.057	0.994 ± 0.022	1.03 ± 0.025	1.05 ± 0.013	1.02 ± 0.039	1.03 ± 0.028	1.03 ± 0.051
